Article PMC7913210 (Pharmaceutics, 2021)
Read-outs that look alike come from different tables or passages of the source.

How the values were obtained:
[1] = Parent-metabolite PK model (non-linear mixed-effect modeling) after SC LHA administration; format: in vivo, Sprague-Dawley rats; conditions: rats; for Km: Sprague-Dawley, rat, plasma, sc
Method: In addition, a combined transit model with first-order absorption was evaluated to better describe absorption phase. In the transit model, the optimal number of transit compartments (NTR) and the mean transit time (MTT) were estimated. The transit model introduced three parameters—Ktr, NTR, and MTT. Two of these three parameters were estimated. The relationship of these parameters is shown in the following equation: MTT= (NTR+1)/Ktr The inter-individual variability (IIV) was assessed using an exponential variability model as following equation: Pi=Ptv ×exp (ETA) where Pi represents the value of the individual PK parameter, Ptv is a typical value for P, and ETA indicates an interindividual random effect with the mean of zero and variance of ω^2. Residual random variability (ε) was calculated using a proportional error model for the three types of observations. Optimal model selection was guided by changes in diagnostic values including twice the negative log like (−2LL), Akaike information Criterion (AIC), Baysian Information Criteria (BIC), visual inspection of various diagnostic plots (goodness of fit plot), and precision of parameter estimates. The visual predictive check (VPC) and boot strap analysis was conducted for non-parametric evaluation of the model. Graphical diagnostics including basic goodness-of-fit plot and other accessory plots were used for single run-based diagnostics during model development. For the final model, the robustness and predictive performance were evaluated using multiple run-based diagnostics such as bootstrapping. A bootstrap procedure was conducted with a total of 1000 bootstrap-resampled datasets from the original dataset. Bootstrap results of median and 95% confidence intervals (CIs, […]) were compared with final parameter estimates. The 95% confidence intervals of parameters obtained from this step were compared with final parameter estimates.

rat liver microsome = conditions: read-out: in vitro Km for the metabolism of lidocaine to MEGX, ref 35 (Deshpande et al.); cited from earlier work
rat olfactory microsomes = conditions: read-out: in vitro Km for the metabolism of lidocaine to MEGX, ref 35 (Deshpande et al.); cited from earlier work

## CCN(CC)CC(=O)Nc1c(C)cccc1C [Lidocaine]
[1]; estimated Km value in vivo for the metabolism of lidocaine to MEGX, developed model
  Km: 137 µM
[1]; Michaelis-Menten elimination of lidocaine, model estimate, read-out: Km, Michaelis-Menten constant
  Km: 137 µM
[1]; lidocaine to MEGX, model estimate
  Fm1, Fraction of the parent converted to first metabolite: 0.65
[1]; model estimate (fixed effect)
  Fr, Fraction of the dose absorbed by first-order absorption: 0.373
Rat liver microsome
  Km: 304 µM
Rat olfactory microsomes
  Km: 157 µM
